# Experimental data from the supplement of paper PMC8728848.
# The other results are listed elsewhere or left out.
# Key:
# Assay in all cases: glycan array binding signal (z-score within array); higher = stronger binding
# Details in all cases: glycan notation: IUPAC condensed, linker removed
# Gal6S(b1-4)Glc = biological target: Gal6S(b1-4)Glc
# Method in brief: (§1)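 Glycan array data were curated from 3228 arrays in the Consortium for Functional Glycomics database and kept only where the protein sequence was available. Glycan names were converted to IUPAC-condensed notation, and columns mapping to the same glycan were averaged. The binding signal is a within-array Z-score, averaged across arrays of the same protein sequence at different concentrations or buffers and across linkers. Negative Z-scores can be read as non-binding.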
# Gal6S(b1-4)Glc6S = biological target: Gal6S(b1-4)Glc6S
# Method in brief: as §1
# Gal6S(b1-4)GlcNAc = biological target: Gal6S(b1-4)GlcNAc
# Method in brief: as §1
# Gal6S(b1-4)GlcNAc6S = biological target: Gal6S(b1-4)GlcNAc6S
# Method in brief: as §1
# GalNAc(a1-3)Gal = biological target: GalNAc(a1-3)Gal
# Method in brief: as §1
# GalNAc(a1-3)GalNAc = biological target: GalNAc(a1-3)GalNAc
# Method in brief: as §1
# [1] = biological target: GalNAc(a1-3)GalNAc(b1-3)Gal(a1-4)Gal(b1-4)Glc
# Method in brief: as §1
# [2] = biological target: GalNAc(a1-3)GalNAc(b1-3)Gal(a1-4)Gal(b1-4)GlcNAc
# Method in brief: as §1
# GalNAc(b1-3)Gal = biological target: GalNAc(b1-3)Gal
# Method in brief: as §1
# [3] = biological target: GalNAc(b1-3)Gal(a1-4)Gal(b1-4)GlcNAc
# Method in brief: as §1
# [4] = biological target: GalNAc(b1-3)Gal(a1-4)Gal(b1-4)GlcNAc(b1-3)Gal(b1-4)Glc
# Method in brief: as §1
# [5] = biological target: GalNAc(b1-3)Gal(a1-6)Gal(b1-4)Glc
# Method in brief: as §1
# GalNAc(b1-3)GalNAc = biological target: GalNAc(b1-3)GalNAc
# Method in brief: as §1
# GalNAc(b1-3)GlcNAc = biological target: GalNAc(b1-3)GlcNAc
# Method in brief: as §1
# GalNAc(b1-4)Gal(b1-4)Glc = biological target: GalNAc(b1-4)Gal(b1-4)Glc
# Method in brief: as §1
# GalNAc(b1-4)GlcNAc = biological target: GalNAc(b1-4)GlcNAc
# Method in brief: as §1
# [6] = biological target: GalNAc(b1-4)GlcNAc(b1-2)Man
# Method in brief: as §1
# [7] = biological target: GalNAc(b1-4)GlcNAc(b1-2)Man(a1-3)[GalNAc(b1-4)GlcNAc(b1-2)Man(a1-6)]Man(b1-4)GlcNAc(b1-4)GlcNAc
# Method in brief: as §1
# [8] = biological target: GalNAc(b1-4)GlcNAc(b1-3)GalNAc(b1-4)GlcNAc
# Method in brief: as §1
# GalNAc(b1-4)GlcNAc6S = biological target: GalNAc(b1-4)GlcNAc6S
# Method in brief: as §1
# GalNAc(b1-6)GalNAc = biological target: GalNAc(b1-6)GalNAc
# Method in brief: as §1
# GalNAc3S(b1-4)GlcNAc = biological target: GalNAc3S(b1-4)GlcNAc
# Method in brief: as §1
# GalNAc3S(b1-4)GlcNAc3S = biological target: GalNAc3S(b1-4)GlcNAc3S
# Method in brief: as §1
# [9] = biological target: GalNAc3S(b1-4)[Fuc(a1-3)]GlcNAc
# Method in brief: as §1
# GalNAc4S6S(b1-4)GlcNAc = biological target: GalNAc4S6S(b1-4)GlcNAc
# Method in brief: as §1
# GalNAc6S(b1-4)GlcNAc = biological target: GalNAc6S(b1-4)GlcNAc
# Method in brief: as §1
# Glc(a1-4)Glc = biological target: Glc(a1-4)Glc
# Method in brief: as §1
# [10] = biological target: Glc(a1-4)Glc(a1-4)Glc(a1-4)Glc
# Method in brief: as §1
# Glc(a1-6)Glc(a1-6)Glc = biological target: Glc(a1-6)Glc(a1-6)Glc
# Method in brief: as §1
# [11] = biological target: Glc(a1-6)Glc(a1-6)Glc(a1-6)Glc
# Method in brief: as §1
# Glc(b1-4)Glc = biological target: Glc(b1-4)Glc
# Method in brief: as §1
# Glc(b1-6)Glc = biological target: Glc(b1-6)Glc
# Method in brief: as §1
# GlcA(b1-3)Gal = biological target: GlcA(b1-3)Gal
# Method in brief: as §1
# GlcA(b1-3)GlcNAc = biological target: GlcA(b1-3)GlcNAc
# Method in brief: as §1
# GlcA(b1-6)Gal = biological target: GlcA(b1-6)Gal
# Method in brief: as §1
# [12] = biological target: GlcA3S(b1-3)Gal(b1-4)GlcNAc(b1-2)Man
# Method in brief: as §1
# [13] = biological target: GlcA3S(b1-3)Gal(b1-4)GlcNAc(b1-3)Gal(b1-4)Glc
# Method in brief: as §1
binder,measurement,setting,value
SP15308B-bot-339-22-339 (Bacteroides ovatus) (protein) NEWEDEQYEQYVSFKAPIASGSDGVTTIYVRYKDNGKVTYQLPIIVSGSTVNSQDRDIHIAVDKDTLKTLNIERFSLYRPELWYTEMEEDKYEFPETVHIPAGSCVELLNIDFNLQDIDMLEKWVLPLTIVDDGSYAYQSHPRKNYAKALLKVVPFNNYSGSYTASSMKVYTYINGKPDTNARTTDKRTGYVVDNNSIFFYAGLINEDMDKDMRKKYKINVHFKEDGTLDMKQDDPSNEMEFELIGTPTYSSTSVMDATRPYLERRYVQIMFEYDFQDFTYGGSGTEVIPIKYRVAGSMTLLRNINTQIPDEDQQIEW,glycan array binding signal (z-score),Gal6S(b1-4)Glc,0.383
same,glycan array binding signal (z-score),Gal6S(b1-4)Glc6S,-0.43
same,glycan array binding signal (z-score),Gal6S(b1-4)GlcNAc,1.87
same,glycan array binding signal (z-score),Gal6S(b1-4)GlcNAc6S,-0.252
same,glycan array binding signal (z-score),GalNAc(a1-3)Gal,3.52
same,glycan array binding signal (z-score),GalNAc(a1-3)GalNAc,0.36
same,glycan array binding signal (z-score),[1],0.105
same,glycan array binding signal (z-score),[2],-0.422
same,glycan array binding signal (z-score),GalNAc(b1-3)Gal,0.012
same,glycan array binding signal (z-score),[3],0.132
same,glycan array binding signal (z-score),[4],-0.135
same,glycan array binding signal (z-score),[5],-0.512
same,glycan array binding signal (z-score),GalNAc(b1-3)GalNAc,-0.649
same,glycan array binding signal (z-score),GalNAc(b1-3)GlcNAc,0.454
same,glycan array binding signal (z-score),GalNAc(b1-4)Gal(b1-4)Glc,0.581
same,glycan array binding signal (z-score),GalNAc(b1-4)GlcNAc,0.63
same,glycan array binding signal (z-score),[6],0.08
same,glycan array binding signal (z-score),[7],1.73
same,glycan array binding signal (z-score),[8],1.39
same,glycan array binding signal (z-score),GalNAc(b1-4)GlcNAc6S,0.196
same,glycan array binding signal (z-score),GalNAc(b1-6)GalNAc,-0.071
same,glycan array binding signal (z-score),GalNAc3S(b1-4)GlcNAc,-0.595
same,glycan array binding signal (z-score),GalNAc3S(b1-4)GlcNAc3S,-0.334
same,glycan array binding signal (z-score),[9],-0.323
same,glycan array binding signal (z-score),GalNAc4S6S(b1-4)GlcNAc,-0.182
same,glycan array binding signal (z-score),GalNAc6S(b1-4)GlcNAc,-0.445
same,glycan array binding signal (z-score),Glc(a1-4)Glc,0.066
same,glycan array binding signal (z-score),[10],-0.584
same,glycan array binding signal (z-score),Glc(a1-6)Glc(a1-6)Glc,-0.215
same,glycan array binding signal (z-score),[11],0.063
same,glycan array binding signal (z-score),Glc(b1-4)Glc,-0.689
same,glycan array binding signal (z-score),Glc(b1-6)Glc,-0.519
same,glycan array binding signal (z-score),GlcA(b1-3)Gal,0.229
same,glycan array binding signal (z-score),GlcA(b1-3)GlcNAc,0.317
same,glycan array binding signal (z-score),GlcA(b1-6)Gal,-0.251
same,glycan array binding signal (z-score),[12],-0.331
same,glycan array binding signal (z-score),[13],-0.016

# Two entries from above, with tabs.
binder	measurement	setting	value
SP15308B-bot-339-22-339 (Bacteroides ovatus) (protein) NEWEDEQYEQYVSFKAPIASGSDGVTTIYVRYKDNGKVTYQLPIIVSGSTVNSQDRDIHIAVDKDTLKTLNIERFSLYRPELWYTEMEEDKYEFPETVHIPAGSCVELLNIDFNLQDIDMLEKWVLPLTIVDDGSYAYQSHPRKNYAKALLKVVPFNNYSGSYTASSMKVYTYINGKPDTNARTTDKRTGYVVDNNSIFFYAGLINEDMDKDMRKKYKINVHFKEDGTLDMKQDDPSNEMEFELIGTPTYSSTSVMDATRPYLERRYVQIMFEYDFQDFTYGGSGTEVIPIKYRVAGSMTLLRNINTQIPDEDQQIEW	glycan array binding signal (z-score)	Gal6S(b1-4)Glc	0.383
same	glycan array binding signal (z-score)	Gal6S(b1-4)Glc6S	-0.43
